# Assay results from the supplement of paper PMC8728848.
# The other results are listed elsewhere or left out.
# B1: RbmA (Vibrio cholerae), A0A2H4NFB8 (protein)
# chain: MSNFKGSIMNKRHYYLASCLALLFSTASYAEVDCELQPVIEANLSLNQNQLASNGGYISSQLGIRNESCETVKFKYWLSIKGPEGIYFPAKAVVGVDTAQQESDALTDGRMLNVTRGFWVPEYMADGKYTVSLQVVAENGEVFKANQEFVKGGDLNSLPELNGLTIDIKNQFGINSVESTGGFVPFTIDLNNGREGEAKVEFWMTAVGPDGLIIPVHSREKWMIIAGNTFSKVRGINFDKSYPAGEYTINAQVVDIVSGERVEQLMTVVKK
# Experiments:
# Experiment in all cases: glycan array binding signal (z-score within array); higher = stronger binding
# Conditions in all cases: glycan notation: IUPAC condensed, linker removed
# [1] = molecular target: Gal(b1-3)GalNAc(b1-3)Gal(a1-4)Gal(b1-4)Glc
# Procedure, shortened: (§1)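 Glycan array data were curated from 3228 arrays in the Consortium for Functional Glycomics database and kept only where the protein sequence was available. Glycan names were converted to IUPAC-condensed notation, and columns mapping to the same glycan were averaged. The binding signal is a within-array Z-score, averaged across arrays of the same protein sequence at different concentrations or buffers and across linkers. Negative Z-scores can be read as non-binding.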
# [2] = molecular target: Gal(b1-3)GalNAc(b1-4)Gal(b1-4)Glc
# Procedure, shortened: as §1
# [3] = molecular target: Gal(b1-3)GalNAc(b1-4)[Neu5Ac(a2-3)]Gal(b1-4)Glc
# Procedure, shortened: as §1
# Gal(b1-3)GlcNAc = molecular target: Gal(b1-3)GlcNAc
# Procedure, shortened: as §1
# [4] = molecular target: Gal(b1-3)GlcNAc(a1-3)Gal(b1-4)GlcNAc
# Procedure, shortened: as §1
# [5] = molecular target: Gal(b1-3)GlcNAc(a1-6)Gal(b1-4)GlcNAc
# Procedure, shortened: as §1
# Gal(b1-3)GlcNAc(b1-2)Man = molecular target: Gal(b1-3)GlcNAc(b1-2)Man
# Procedure, shortened: as §1
# [6] = molecular target: Gal(b1-3)GlcNAc(b1-2)Man(a1-3)[Gal(b1-3)GlcNAc(b1-2)Man(a1-6)]Man(b1-4)GlcNAc(b1-4)GlcNAc
# Procedure, shortened: as §1
# [7] = molecular target: Gal(b1-3)GlcNAc(b1-2)Man(a1-3)[Gal(b1-3)GlcNAc(b1-2)Man(a1-6)]Man(b1-4)GlcNAc(b1-4)[Fuc(a1-6)]GlcNAc
# Procedure, shortened: as §1
# [8] = molecular target: Gal(b1-3)GlcNAc(b1-2)Man(a1-3)[GlcNAc(b1-4)][Gal(b1-3)GlcNAc(b1-2)Man(a1-6)]Man(b1-4)GlcNAc(b1-4)GlcNAc
# Procedure, shortened: as §1
# [9] = molecular target: Gal(b1-3)GlcNAc(b1-2)[Gal(b1-3)GlcNAc(b1-6)]Man(a1-6)[Gal(b1-3)GlcNAc(b1-2)Man(a1-3)]Man(b1-4)GlcNAc(b1-4)GlcNAc
# Procedure, shortened: as §1
# [10] = molecular target: Gal(b1-3)GlcNAc(b1-3)Gal(b1-3)GlcNAc
# Procedure, shortened: as §1
# [11] = molecular target: Gal(b1-3)GlcNAc(b1-3)Gal(b1-4)Glc
# Procedure, shortened: as §1
# [12] = molecular target: Gal(b1-3)GlcNAc(b1-3)Gal(b1-4)GlcNAc
# Procedure, shortened: as §1
# [13] = molecular target: Gal(b1-3)GlcNAc(b1-3)Gal(b1-4)GlcNAc(b1-2)Man(a1-3)[Gal(b1-3)GlcNAc(b1-3)Gal(b1-4)GlcNAc(b1-2)Man(a1-6)]Man(b1-4)GlcNAc(b1-4)GlcNAc
# Procedure, shortened: as §1
# [14] = molecular target: Gal(b1-3)GlcNAc(b1-3)Gal(b1-4)GlcNAc(b1-2)[Gal(b1-3)GlcNAc(b1-3)Gal(b1-4)GlcNAc(b1-6)]Man(a1-6)[Gal(b1-3)GlcNAc(b1-3)Gal(b1-4)GlcNAc(b1-2)Man(a1-3)]Man(b1-4)GlcNAc(b1-4)[Fuc(a1-6)]GlcNAc
# Procedure, shortened: as §1
# [15] = molecular target: Gal(b1-3)GlcNAc(b1-3)Gal(b1-4)GlcNAc(b1-3)Gal(b1-4)GlcNAc(b1-2)[Gal(b1-3)GlcNAc(b1-3)Gal(b1-4)GlcNAc(b1-3)Gal(b1-4)GlcNAc(b1-6)]Man(a1-6)[Gal(b1-3)GlcNAc(b1-3)Gal(b1-4)GlcNAc(b1-3)Gal(b1-4)GlcNAc(b1-2)Man(a1-3)]Man(b1-4)GlcNAc(b1-4)[Fuc(a1-6)]GlcNAc
# Procedure, shortened: as §1
# [16] = molecular target: Gal(b1-3)GlcNAc(b1-3)Gal(b1-4)GlcNAc(b1-6)[Gal(b1-3)GlcNAc(b1-3)]Gal(b1-4)Glc
# Procedure, shortened: as §1
# [17] = molecular target: Gal(b1-3)GlcNAc(b1-3)Gal(b1-4)[Fuc(a1-3)]GlcNAc(b1-6)[Gal(b1-3)GlcNAc(b1-3)]Gal(b1-4)Glc
# Procedure, shortened: as §1
# [18] = molecular target: Gal(b1-3)GlcNAc(b1-3)GalNAc
# Procedure, shortened: as §1
# [19] = molecular target: Gal(b1-3)GlcNAc(b1-6)Gal(b1-4)GlcNAc
# Procedure, shortened: as §1
# [20] = molecular target: Gal(b1-3)GlcNAc(b1-6)GalNAc
# Procedure, shortened: as §1
# [21] = molecular target: Gal(b1-3)GlcNAc(b1-6)[Gal(b1-3)]GalNAc
# Procedure, shortened: as §1
# Gal(b1-3)GlcNAc6S = molecular target: Gal(b1-3)GlcNAc6S
# Procedure, shortened: as §1
# [22] = molecular target: Gal(b1-3)[Fuc(a1-4)]GlcNAc
# Procedure, shortened: as §1
# [23] = molecular target: Gal(b1-3)[Fuc(a1-4)]GlcNAc(b1-2)Man
# Procedure, shortened: as §1
# [24] = molecular target: Gal(b1-3)[Fuc(a1-4)]GlcNAc(b1-2)Man(a1-3)[Gal(b1-3)[Fuc(a1-4)]GlcNAc(b1-2)Man(a1-6)]Man(b1-4)GlcNAc(b1-4)[Fuc(a1-6)]GlcNAc
# Procedure, shortened: as §1
# [25] = molecular target: Gal(b1-3)[Fuc(a1-4)]GlcNAc(b1-3)Gal(b1-3)[Fuc(a1-4)]GlcNAc
# Procedure, shortened: as §1
# [26] = molecular target: Gal(b1-3)[Fuc(a1-4)]GlcNAc(b1-3)Gal(b1-4)GlcNAc
# Procedure, shortened: as §1
# [27] = molecular target: Gal(b1-3)[Fuc(a1-4)]GlcNAc(b1-3)Gal(b1-4)[Fuc(a1-3)]GlcNAc
# Procedure, shortened: as §1
# [28] = molecular target: Gal(b1-3)[Fuc(a1-4)]GlcNAc(b1-6)GalNAc
# Procedure, shortened: as §1
# [29] = molecular target: Gal(b1-3)[GlcNAc(b1-6)]GalNAc
# Procedure, shortened: as §1
# [30] = molecular target: Gal(b1-3)[Neu5Ac(a2-6)]GalNAc
# Procedure, shortened: as §1
# [31] = molecular target: Gal(b1-3)[Neu5Ac(a2-6)]GlcNAc(b1-4)Gal(b1-4)Glc
# Procedure, shortened: as §1
# [32] = molecular target: Gal(b1-3)[Neu5Ac(b2-6)]GalNAc
# Procedure, shortened: as §1
# Gal(b1-4)Gal = molecular target: Gal(b1-4)Gal
# Procedure, shortened: as §1
# [33] = molecular target: Gal(b1-4)GalNAc(a1-3)[Fuc(a1-2)]Gal(b1-4)GlcNAc
# Procedure, shortened: as §1
# [34] = molecular target: Gal(b1-4)GalNAc(b1-3)[Fuc(a1-2)]Gal(b1-4)GlcNAc
# Procedure, shortened: as §1
binder,measurement,setting,value
B1,glycan array binding signal (z-score),[1],-1.19
same,glycan array binding signal (z-score),[2],0.503
same,glycan array binding signal (z-score),[3],-0.855
same,glycan array binding signal (z-score),Gal(b1-3)GlcNAc,-0.559
same,glycan array binding signal (z-score),[4],-0.24
same,glycan array binding signal (z-score),[5],-0.287
same,glycan array binding signal (z-score),Gal(b1-3)GlcNAc(b1-2)Man,0.691
same,glycan array binding signal (z-score),[6],0.769
same,glycan array binding signal (z-score),[7],1.19
same,glycan array binding signal (z-score),[8],0.268
same,glycan array binding signal (z-score),[9],-0.69
same,glycan array binding signal (z-score),[10],-0.104
same,glycan array binding signal (z-score),[11],-0.748
same,glycan array binding signal (z-score),[12],-0.233
same,glycan array binding signal (z-score),[13],-0.218
same,glycan array binding signal (z-score),[14],1.28
same,glycan array binding signal (z-score),[15],0.876
same,glycan array binding signal (z-score),[16],0.203
same,glycan array binding signal (z-score),[17],1.08
same,glycan array binding signal (z-score),[18],-0.139
same,glycan array binding signal (z-score),[19],-0.684
same,glycan array binding signal (z-score),[20],-0.515
same,glycan array binding signal (z-score),[21],1.07
same,glycan array binding signal (z-score),Gal(b1-3)GlcNAc6S,-0.734
same,glycan array binding signal (z-score),[22],-0.026
same,glycan array binding signal (z-score),[23],-0.323
same,glycan array binding signal (z-score),[24],-0.257
same,glycan array binding signal (z-score),[25],-1.06
same,glycan array binding signal (z-score),[26],-0.691
same,glycan array binding signal (z-score),[27],-0.501
same,glycan array binding signal (z-score),[28],-0.562
same,glycan array binding signal (z-score),[29],-0.519
same,glycan array binding signal (z-score),[30],-0.239
same,glycan array binding signal (z-score),[31],0.856
same,glycan array binding signal (z-score),[32],-0.623
same,glycan array binding signal (z-score),Gal(b1-4)Gal,0.213
same,glycan array binding signal (z-score),[33],-0.268
same,glycan array binding signal (z-score),[34],-0.685

# Not a retest: entries from further up.
binder,measurement,setting,value
B1,glycan array binding signal (z-score),[8],0.268
same,glycan array binding signal (z-score),[9],-0.69
